In experiment [1] the target is HSFA2-YFP expressed from pHSFA2::HSFA2-YFP (A. thaliana) (UniProt O80982). Nature of the experiment: affinity purification with mass spectrometry; Co-IP/MS of HSFA2-YFP in the hsfa3 mutant background, without HS or 4 h after ACC; Trypsin/Lys-C digest, Q Exactive HF.
The target is the same in experiment [2]. Nature of the experiment: affinity purification with mass spectrometry; HSFA2-YFP complexes isolated from seedlings under no-HS conditions, 45 min and 3 h after 1 h HS at 37 °C; trypsin digest, Q Exactive Plus.

Amino acid sequences for entries named in this document (tags omitted).
UniProt O80982: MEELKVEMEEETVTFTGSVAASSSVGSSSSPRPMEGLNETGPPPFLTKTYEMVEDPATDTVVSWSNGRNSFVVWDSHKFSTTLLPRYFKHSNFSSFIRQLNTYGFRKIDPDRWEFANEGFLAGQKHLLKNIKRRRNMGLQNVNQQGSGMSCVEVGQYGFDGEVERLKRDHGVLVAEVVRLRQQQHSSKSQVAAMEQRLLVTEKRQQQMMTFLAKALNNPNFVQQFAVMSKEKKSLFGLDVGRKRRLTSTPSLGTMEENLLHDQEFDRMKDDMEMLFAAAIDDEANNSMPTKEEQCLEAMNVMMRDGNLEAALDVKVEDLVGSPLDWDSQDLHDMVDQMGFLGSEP

These are yes or no findings as the source states them, for the method shown. Binding seen in cells or lysates may run through a third protein. Here binding means that the protein was enriched with, or labelled near, the bait; the list need not be complete.

B1: HSFA7B (endogenous) (protein, UniProt Q9M1V5 1-282)
chain: MDPSSSSRARSMPPPVPMEGLQEAGPSPFLTKTFEMVGDPNTNHIVSWNRGGISFVVWDPHSFSATILPLYFKHNNFSSFVRQLNTYGFRKIEAERWEFMNEGFLMGQRDLLKSIKRRTSSSSPPSLNYSQSQPEAHDPGVELPQLREERHVLMMEISTLRQEEQRARGYVQAMEQRINGAEKKQRHMMSFLRRAVENPSLLQQIFEQKRDREEAAMIDQAGLIKMEEVEHLSELEALALEMQGYGRQRTDGVERELDDGFWEELLMNNENSDEEEANVKQD
For B1, the binding entry in experiment [1] and in experiment [2] was “binds” throughout.
